# Article PMC13254535, “The RecBCD complex interacts directly with the DNA sliding clamp in Escherichia coli” (Nucleic Acids Research, 2026)
# Sequences of proteins named here, by UniProt entry; tags and fusion partners are left off.
# UniProt P0A7G6: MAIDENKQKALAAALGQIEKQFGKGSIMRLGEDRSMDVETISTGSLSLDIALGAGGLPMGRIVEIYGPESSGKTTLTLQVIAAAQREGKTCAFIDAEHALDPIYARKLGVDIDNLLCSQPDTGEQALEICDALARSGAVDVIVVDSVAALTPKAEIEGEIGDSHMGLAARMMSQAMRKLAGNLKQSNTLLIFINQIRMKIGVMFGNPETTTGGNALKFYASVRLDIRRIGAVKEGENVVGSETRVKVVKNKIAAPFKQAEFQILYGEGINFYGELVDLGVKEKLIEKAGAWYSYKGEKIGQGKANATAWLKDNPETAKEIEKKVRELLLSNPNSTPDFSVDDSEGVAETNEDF
# UniProt P0A988: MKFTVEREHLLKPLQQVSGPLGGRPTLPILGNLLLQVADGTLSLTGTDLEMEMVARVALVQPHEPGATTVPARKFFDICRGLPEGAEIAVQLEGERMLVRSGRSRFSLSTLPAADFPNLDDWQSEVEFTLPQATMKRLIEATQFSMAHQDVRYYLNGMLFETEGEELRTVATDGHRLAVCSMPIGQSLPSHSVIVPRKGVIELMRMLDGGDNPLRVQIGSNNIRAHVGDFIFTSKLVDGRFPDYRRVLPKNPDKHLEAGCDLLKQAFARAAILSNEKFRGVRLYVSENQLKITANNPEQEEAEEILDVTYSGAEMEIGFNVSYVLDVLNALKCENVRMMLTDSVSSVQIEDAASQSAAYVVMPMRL
# Results are given in words; binding and its absence hold for the method and conditions named. Some results given as binding are weak or reduced against the parent protein; the word gives no strength. For some assays here: Where a sequence is shown, tags or fusion partners need not be part of it.
# Columns and labels:
# [1] = molecular target: RecA–T25 fusion from pKT25-recAWT (Escherichia coli) (UniProt P0A7G6); assay: two-hybrid; BACTH of RecB with RecA; read-out not told in the text (Supplementary Fig. S8)
# [2] = molecular target: β-clamp (DnaN)-T25 fusion from pKT25-dnaN (Escherichia coli) (UniProt P0A988); assay: two-hybrid; BACTH, selective growth in M63 minimal medium with maltose, 30°C, OD600 at 24, 48, 72 h; BTH101 ΔrecA
# [3] = molecular target: β-clamp (DnaN)-T25 fusion from pKT25-dnaN (Escherichia coli) (UniProt P0A988); assay: two-hybrid; BACTH, quantitative β-galactosidase assay in BTH101 ΔrecC
# [4] = molecular target: β-clamp (DnaN)-T25 fusion from pKT25-dnaN (Escherichia coli) (UniProt P0A988); assay: two-hybrid; BACTH, quantitative β-galactosidase assay in BTH101 recD::minitet (ΔrecD)
# [5] = molecular target: β-clamp (DnaN)-T25 fusion from pKT25-dnaN (Escherichia coli) (UniProt P0A988); assay: two-hybrid; BACTH, qualitative X-gal spot (blue/white) assay on LB agar with IPTG and X-gal, 30°C, 2-3 days; an identical plate exposed to UV 15 J/m^2
# [6] = molecular target: β-clamp (DnaN)-T25 fusion from pKT25-dnaN (Escherichia coli) (UniProt P0A988); assay: two-hybrid; BACTH, quantitative β-galactosidase (Miller) assay, BTH101 wild type and ΔrecB backgrounds, 30°C, 0.5 mM IPTG
# [7] = molecular target: Escherichia coli β-clamp (DnaN), recombinantly expressed and purified (Escherichia coli) (UniProt P0A988); assay: STD-NMR; 150 µM peptide with 1.5 µM unlabeled β-clamp, 20 mM sodium phosphate, 100 mM NaCl, 5 mM DTT, 0.3% DMSO, pH 7.4, 25°C; both purified
Binder,binding [6],binding [7],also measured
"RecB–T18 fusion, wild type, from pUT18C-recBWT (protein, UniProt P08394 1-1180) MSDVAETLDPLRLPLQGERLIEASAGTGKTFTIAALYLRLLLGLGGSAAFPRPLTVEELLVVTFTEAATAELRGRIRSNIHELRIACLRETTDNPLYERLLEEIDDKAQAAQWLLLAERQMDEAAVFTIHGFCQRMLNLNAFESGMLFEQQLIEDESLLRYQACADFWRRHCYPLPREIAQVVFETWKGPQALLRDINRYLQGEAPVIKAPPPDDETLASRHAQIVARIDTVKQQWRDAVGELDALIESSGIDRRKFNRSNQAKWIDKISAWAEEETNSYQLPESLEKFSQRFLEDRTKAGGETPRHPLFEAIDQLLAEPLSIRDLVITRALAEIRETVAREKRRRGELGFDDMLSRLDSALRSESGEVLAAAIRTRFPVAMIDEFQDTDPQQYRIFRRIWHHQPETALLLIGDPKQAIYAFRGADIFTYMKARSEVHAHYTLDTNWRSAPGMVNSVNKLFSQTDDAFMFREIPFIPVKSAGKNQALRFVFKGETQPAMKMWLMEGESCGVGDYQSTMAQVCAAQIRDWLQAGQRGEALLMNGDDARPVRASDISVLVRSRQEAAQVRDALTLLEIPSVYLSNRDSVFETLEAQEMLWLLQAVMTPERENTLRSALATSMMGLNALDIETLNNDEHAWDVVVEEFDGYRQIWRKRGVMPMLRALMSARNIAENLLATAGGERRLTDILHISELLQEAGTQLESEHALVRWLSQHILEPDSNASSQQMRLESDKHLVQIVTIHKSKGLEYPLVWLPFITNFRVQEQAFYHDRHSFEAVLDLNAAPESVDLAEAERLAEDLRLLYVALTRSVWHCSLGVAPLVRRRGDKKGDTDVHQSALGRLLQKGEPQDAAGLRTCIEALCDDDIAWQTAQTGDNQPWQVNDVSTAELNAKTLQRLPGDNWRVTSYSGLQQRGHGIAQDLMPRLDVDAAGVASVVEEPTLTPHQFPRGASPGTFLHSLFEDLDFTQPVDPNWVREKLELGGFESQWEPVLTEWITAVLQAPLNETGVSLSQLSARNKQVEMEFYLPISEPLIASQLDTLIRQFDPLSAGCPPLEFMQVRGMLKGFIDLVFRHEGRYYLLDYKSNWLGEDSSAYTQQAMAAAMQAHRYDLQYQLYTLALHRYLRHRIADYDYEHHFGGVIYLFLRGVDKEHPQQGIYTTRPNAGLIALMDEMFAGMTLEEA",binds,,binding [1]: binds; binding [2]: binds; binding [3]: no binding (condition: in BTH101 ΔrecC (no RecC)); binding [4]: no binding (condition: in BTH101 ΔrecD (no RecD)); binding [5]: binds
"RecB_(F1023A)–T18 fusion from pUT18C-recB_(F1023A) (protein, UniProt P08394 1-1180) MSDVAETLDPLRLPLQGERLIEASAGTGKTFTIAALYLRLLLGLGGSAAFPRPLTVEELLVVTFTEAATAELRGRIRSNIHELRIACLRETTDNPLYERLLEEIDDKAQAAQWLLLAERQMDEAAVFTIHGFCQRMLNLNAFESGMLFEQQLIEDESLLRYQACADFWRRHCYPLPREIAQVVFETWKGPQALLRDINRYLQGEAPVIKAPPPDDETLASRHAQIVARIDTVKQQWRDAVGELDALIESSGIDRRKFNRSNQAKWIDKISAWAEEETNSYQLPESLEKFSQRFLEDRTKAGGETPRHPLFEAIDQLLAEPLSIRDLVITRALAEIRETVAREKRRRGELGFDDMLSRLDSALRSESGEVLAAAIRTRFPVAMIDEFQDTDPQQYRIFRRIWHHQPETALLLIGDPKQAIYAFRGADIFTYMKARSEVHAHYTLDTNWRSAPGMVNSVNKLFSQTDDAFMFREIPFIPVKSAGKNQALRFVFKGETQPAMKMWLMEGESCGVGDYQSTMAQVCAAQIRDWLQAGQRGEALLMNGDDARPVRASDISVLVRSRQEAAQVRDALTLLEIPSVYLSNRDSVFETLEAQEMLWLLQAVMTPERENTLRSALATSMMGLNALDIETLNNDEHAWDVVVEEFDGYRQIWRKRGVMPMLRALMSARNIAENLLATAGGERRLTDILHISELLQEAGTQLESEHALVRWLSQHILEPDSNASSQQMRLESDKHLVQIVTIHKSKGLEYPLVWLPFITNFRVQEQAFYHDRHSFEAVLDLNAAPESVDLAEAERLAEDLRLLYVALTRSVWHCSLGVAPLVRRRGDKKGDTDVHQSALGRLLQKGEPQDAAGLRTCIEALCDDDIAWQTAQTGDNQPWQVNDVSTAELNAKTLQRLPGDNWRVTSYSGLQQRGHGIAQDLMPRLDVDAAGVASVVEEPTLTPHQFPRGASPGTFLHSLFEDLDFTQPVDPNWVREKLELGGFESQWEPVLTEWITAVLQAPLNETGVSLSQLSARNKQVEMEAYLPISEPLIASQLDTLIRQFDPLSAGCPPLEFMQVRGMLKGFIDLVFRHEGRYYLLDYKSNWLGEDSSAYTQQAMAAAMQAHRYDLQYQLYTLALHRYLRHRIADYDYEHHFGGVIYLFLRGVDKEHPQQGIYTTRPNAGLIALMDEMFAGMTLEEA",,,binding [1]: binds
"RecB_(Δheli)–T18 fusion (RecB nuclease domain, residues 928–1180) (domain or fragment, UniProt P08394 928-1180) AAGVASVVEEPTLTPHQFPRGASPGTFLHSLFEDLDFTQPVDPNWVREKLELGGFESQWEPVLTEWITAVLQAPLNETGVSLSQLSARNKQVEMEFYLPISEPLIASQLDTLIRQFDPLSAGCPPLEFMQVRGMLKGFIDLVFRHEGRYYLLDYKSNWLGEDSSAYTQQAMAAAMQAHRYDLQYQLYTLALHRYLRHRIADYDYEHHFGGVIYLFLRGVDKEHPQQGIYTTRPNAGLIALMDEMFAGMTLEEA",binds,,
"RecB_(Δnuc)–T18 fusion (RecB helicase domain, residues 1–927) (domain or fragment, UniProt P08394 1-927) MSDVAETLDPLRLPLQGERLIEASAGTGKTFTIAALYLRLLLGLGGSAAFPRPLTVEELLVVTFTEAATAELRGRIRSNIHELRIACLRETTDNPLYERLLEEIDDKAQAAQWLLLAERQMDEAAVFTIHGFCQRMLNLNAFESGMLFEQQLIEDESLLRYQACADFWRRHCYPLPREIAQVVFETWKGPQALLRDINRYLQGEAPVIKAPPPDDETLASRHAQIVARIDTVKQQWRDAVGELDALIESSGIDRRKFNRSNQAKWIDKISAWAEEETNSYQLPESLEKFSQRFLEDRTKAGGETPRHPLFEAIDQLLAEPLSIRDLVITRALAEIRETVAREKRRRGELGFDDMLSRLDSALRSESGEVLAAAIRTRFPVAMIDEFQDTDPQQYRIFRRIWHHQPETALLLIGDPKQAIYAFRGADIFTYMKARSEVHAHYTLDTNWRSAPGMVNSVNKLFSQTDDAFMFREIPFIPVKSAGKNQALRFVFKGETQPAMKMWLMEGESCGVGDYQSTMAQVCAAQIRDWLQAGQRGEALLMNGDDARPVRASDISVLVRSRQEAAQVRDALTLLEIPSVYLSNRDSVFETLEAQEMLWLLQAVMTPERENTLRSALATSMMGLNALDIETLNNDEHAWDVVVEEFDGYRQIWRKRGVMPMLRALMSARNIAENLLATAGGERRLTDILHISELLQEAGTQLESEHALVRWLSQHILEPDSNASSQQMRLESDKHLVQIVTIHKSKGLEYPLVWLPFITNFRVQEQAFYHDRHSFEAVLDLNAAPESVDLAEAERLAEDLRLLYVALTRSVWHCSLGVAPLVRRRGDKKGDTDVHQSALGRLLQKGEPQDAAGLRTCIEALCDDDIAWQTAQTGDNQPWQVNDVSTAELNAKTLQRLPGDNWRVTSYSGLQQRGHGIAQDLMPRLDVD",binds,,
"RecB_(Δnuc mutQALRF)–T18 fusion (domain or fragment, UniProt P08394 1-927) MSDVAETLDPLRLPLQGERLIEASAGTGKTFTIAALYLRLLLGLGGSAAFPRPLTVEELLVVTFTEAATAELRGRIRSNIHELRIACLRETTDNPLYERLLEEIDDKAQAAQWLLLAERQMDEAAVFTIHGFCQRMLNLNAFESGMLFEQQLIEDESLLRYQACADFWRRHCYPLPREIAQVVFETWKGPQALLRDINRYLQGEAPVIKAPPPDDETLASRHAQIVARIDTVKQQWRDAVGELDALIESSGIDRRKFNRSNQAKWIDKISAWAEEETNSYQLPESLEKFSQRFLEDRTKAGGETPRHPLFEAIDQLLAEPLSIRDLVITRALAEIRETVAREKRRRGELGFDDMLSRLDSALRSESGEVLAAAIRTRFPVAMIDEFQDTDPQQYRIFRRIWHHQPETALLLIGDPKQAIYAFRGADIFTYMKARSEVHAHYTLDTNWRSAPGMVNSVNKLFSQTDDAFMFREIPFIPVKSAGKNAAAAAVFKGETQPAMKMWLMEGESCGVGDYQSTMAQVCAAQIRDWLQAGQRGEALLMNGDDARPVRASDISVLVRSRQEAAQVRDALTLLEIPSVYLSNRDSVFETLEAQEMLWLLQAVMTPERENTLRSALATSMMGLNALDIETLNNDEHAWDVVVEEFDGYRQIWRKRGVMPMLRALMSARNIAENLLATAGGERRLTDILHISELLQEAGTQLESEHALVRWLSQHILEPDSNASSQQMRLESDKHLVQIVTIHKSKGLEYPLVWLPFITNFRVQEQAFYHDRHSFEAVLDLNAAPESVDLAEAERLAEDLRLLYVALTRSVWHCSLGVAPLVRRRGDKKGDTDVHQSALGRLLQKGEPQDAAGLRTCIEALCDDDIAWQTAQTGDNQPWQVNDVSTAELNAKTLQRLPGDNWRVTSYSGLQQRGHGIAQDLMPRLDVD",no binding,,
"RecB_(Δheli mutQVEMEF)–T18 fusion (domain or fragment, UniProt P08394 928-1180) AAGVASVVEEPTLTPHQFPRGASPGTFLHSLFEDLDFTQPVDPNWVREKLELGGFESQWEPVLTEWITAVLQAPLNETGVSLSQLSARNKAAAAAAYLPISEPLIASQLDTLIRQFDPLSAGCPPLEFMQVRGMLKGFIDLVFRHEGRYYLLDYKSNWLGEDSSAYTQQAMAAAMQAHRYDLQYQLYTLALHRYLRHRIADYDYEHHFGGVIYLFLRGVDKEHPQQGIYTTRPNAGLIALMDEMFAGMTLEEA",no binding,,
KQVEMEAY (N-terminally acetylated; C-terminally amidated) [RecB nuclease motif F-A peptide (KQVEMEAY)],,no binding (tested: 150 µM peptide with 1.5 µM β-clamp),
GKNQALRFV (N-terminally acetylated; C-terminally amidated) [RecB helicase motif peptide (…)],,no binding (tested: 150 µM peptide with 1.5 µM β-clamp),
GKNQALRAV (N-terminally acetylated; C-terminally amidated) [RecB helicase motif F-A peptide (…)],,no binding (tested: 150 µM peptide with 1.5 µM β-clamp),
